Data from paper PMC11622535.
No constants are given. Whether binding was seen depends on the method and setting. Binding seen in cells or lysates may run through a third protein. Some binding calls cover weakened binding; strength is not graded here. Sequences can lack the tags named with a protein. Values belong to the binder of their own block, whether it stands above or below them.

Target: T1, CLuc-CesA4 (Arabidopsis cellulose synthase A4) (Arabidopsis thaliana) (UniProt Q84JA6)
T1 sequence: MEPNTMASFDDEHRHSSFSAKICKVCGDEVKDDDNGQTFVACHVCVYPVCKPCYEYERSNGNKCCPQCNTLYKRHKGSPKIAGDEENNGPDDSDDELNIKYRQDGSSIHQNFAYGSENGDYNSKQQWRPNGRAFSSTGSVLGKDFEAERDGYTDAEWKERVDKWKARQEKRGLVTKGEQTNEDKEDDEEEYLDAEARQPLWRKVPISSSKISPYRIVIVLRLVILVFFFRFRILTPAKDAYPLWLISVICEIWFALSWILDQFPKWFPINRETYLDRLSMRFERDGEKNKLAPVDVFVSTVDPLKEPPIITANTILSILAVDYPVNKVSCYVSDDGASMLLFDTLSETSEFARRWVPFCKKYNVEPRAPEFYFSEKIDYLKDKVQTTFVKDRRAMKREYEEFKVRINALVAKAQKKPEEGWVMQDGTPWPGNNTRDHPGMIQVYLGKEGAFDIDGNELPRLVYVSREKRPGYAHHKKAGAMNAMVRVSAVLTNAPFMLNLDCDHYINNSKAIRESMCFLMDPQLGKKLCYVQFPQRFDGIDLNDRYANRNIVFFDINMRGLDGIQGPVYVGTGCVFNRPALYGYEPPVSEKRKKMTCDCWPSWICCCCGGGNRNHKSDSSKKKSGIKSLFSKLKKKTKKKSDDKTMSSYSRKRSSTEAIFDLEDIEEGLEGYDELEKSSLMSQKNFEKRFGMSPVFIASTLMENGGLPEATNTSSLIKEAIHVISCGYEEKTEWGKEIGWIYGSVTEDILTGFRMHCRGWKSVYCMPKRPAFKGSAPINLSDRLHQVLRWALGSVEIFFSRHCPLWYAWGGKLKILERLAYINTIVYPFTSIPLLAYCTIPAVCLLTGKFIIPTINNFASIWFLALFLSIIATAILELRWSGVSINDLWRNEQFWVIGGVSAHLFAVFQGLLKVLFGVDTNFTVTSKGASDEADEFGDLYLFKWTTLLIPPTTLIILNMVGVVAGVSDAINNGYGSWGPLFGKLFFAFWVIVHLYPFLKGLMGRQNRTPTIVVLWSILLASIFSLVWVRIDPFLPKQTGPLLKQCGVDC
Test: split reporter; split luciferase complementation; NLuc and CLuc fusions co-expressed in N. benthamiana leaves, luciferase activity imaged 48 h later

- binding: binds
B1: NLuc-CASPL2 (Arabidopsis) (protein, UniProt Q9SQU2 1-199)
chain: MASTENPDPETGKSEPIPASATPPPSSAASFLDCRKIDIITRVLLFSATLTALIVMVTSDQTEMTQLPGVSSPAPVSAEFNDSPAFIYFVVALVVASFYALISTLVSISLLLKPEFTAQFSIYLASLDMVMLGILASATGTAGGVAYIALKGNEEVGWNKICNVYDKFCRYIATSLALSLFASLLLLVLSIWSALSKRT

- binding: binds
B2: … STRIP MEMBRANE DOMAIN-LIKE1 (CASPL1), Arabidopsis, split luciferase construct (protein, UniProt Q9FE29 1-193)
chain: MGYETKSTLDTERSTAPGTGTTTKSCSMTQVVLRFVLFAATLTSIVVMVTSKQTKNIFLPGTPIRIPAAEFTNSPALIYFVVALSVACFYSIVSTFVTVSAFKKHSCSAVLLLNLAIMDAVMVGIVASATGAGGGVAYLGLKGNKEVRWGKICHIYDKFCRHVGGAIAVSLFASVVLLLLSIISVLSLYKKIR
